{
  "sequences": {"note": "Sequences of proteins named here, by UniProt entry; tags and fusion partners are left off. A change or cut given only in a name is not applied to a line headed by its entry.", "UniProt P42680": "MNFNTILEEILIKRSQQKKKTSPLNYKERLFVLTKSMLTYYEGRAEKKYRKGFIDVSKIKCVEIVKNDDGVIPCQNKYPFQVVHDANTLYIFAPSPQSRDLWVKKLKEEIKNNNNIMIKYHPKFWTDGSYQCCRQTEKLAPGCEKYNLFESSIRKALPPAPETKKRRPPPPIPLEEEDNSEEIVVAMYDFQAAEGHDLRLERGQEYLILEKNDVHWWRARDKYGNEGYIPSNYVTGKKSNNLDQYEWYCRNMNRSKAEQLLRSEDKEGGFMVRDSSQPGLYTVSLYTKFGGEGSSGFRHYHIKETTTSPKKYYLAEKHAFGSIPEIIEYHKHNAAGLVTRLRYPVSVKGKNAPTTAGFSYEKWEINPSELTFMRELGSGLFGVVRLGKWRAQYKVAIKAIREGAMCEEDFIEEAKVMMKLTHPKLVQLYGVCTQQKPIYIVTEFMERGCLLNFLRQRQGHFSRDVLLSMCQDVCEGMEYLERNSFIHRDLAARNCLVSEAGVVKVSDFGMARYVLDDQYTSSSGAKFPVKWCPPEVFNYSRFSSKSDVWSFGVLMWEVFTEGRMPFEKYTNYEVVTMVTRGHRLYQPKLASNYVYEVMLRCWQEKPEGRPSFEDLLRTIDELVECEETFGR", "UniProt P29597": "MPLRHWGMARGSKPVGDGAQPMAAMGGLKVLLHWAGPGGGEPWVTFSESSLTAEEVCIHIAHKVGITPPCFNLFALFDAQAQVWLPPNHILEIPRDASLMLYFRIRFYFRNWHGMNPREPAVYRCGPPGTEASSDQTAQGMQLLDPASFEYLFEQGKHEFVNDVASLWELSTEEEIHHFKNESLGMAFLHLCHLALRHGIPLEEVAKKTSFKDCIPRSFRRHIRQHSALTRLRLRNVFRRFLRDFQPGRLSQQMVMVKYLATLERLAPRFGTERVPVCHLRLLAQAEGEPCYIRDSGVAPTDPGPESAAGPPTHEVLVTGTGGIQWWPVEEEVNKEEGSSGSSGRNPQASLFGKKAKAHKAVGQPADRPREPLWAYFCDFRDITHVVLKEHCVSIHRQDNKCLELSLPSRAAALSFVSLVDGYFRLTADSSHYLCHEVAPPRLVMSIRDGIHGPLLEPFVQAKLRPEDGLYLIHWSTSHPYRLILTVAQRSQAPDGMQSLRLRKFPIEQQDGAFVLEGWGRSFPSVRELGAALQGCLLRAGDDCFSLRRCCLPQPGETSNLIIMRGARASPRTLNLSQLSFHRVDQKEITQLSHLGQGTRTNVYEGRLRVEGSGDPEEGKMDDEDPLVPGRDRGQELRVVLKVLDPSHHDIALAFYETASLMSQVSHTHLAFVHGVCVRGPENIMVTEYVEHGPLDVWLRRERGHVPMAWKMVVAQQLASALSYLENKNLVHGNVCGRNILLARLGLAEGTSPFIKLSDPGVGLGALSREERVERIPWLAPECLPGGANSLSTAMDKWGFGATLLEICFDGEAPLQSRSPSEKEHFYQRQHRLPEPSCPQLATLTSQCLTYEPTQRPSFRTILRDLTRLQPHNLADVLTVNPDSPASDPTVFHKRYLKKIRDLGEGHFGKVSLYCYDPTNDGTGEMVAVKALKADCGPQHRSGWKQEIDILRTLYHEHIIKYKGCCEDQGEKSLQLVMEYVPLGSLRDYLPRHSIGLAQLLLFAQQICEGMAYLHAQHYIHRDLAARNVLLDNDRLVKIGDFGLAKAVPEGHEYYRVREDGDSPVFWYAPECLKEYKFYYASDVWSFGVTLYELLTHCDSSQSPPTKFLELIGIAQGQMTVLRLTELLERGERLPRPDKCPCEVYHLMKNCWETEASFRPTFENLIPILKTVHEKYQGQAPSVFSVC"},
  "source": "the supplement of paper PMC12823440",
  "about": "“Inhibitors supercharge kinase turnover through native proteolytic circuits” (Nature, 2025)",
  "note": "Where a name gives a salt, the structure may show the parent alone. The list shows a part of the results. The calls rarely recur for the same compound in another form.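 In K562 cells expressing nanoluciferase-fused kinases, luminescence was recorded at 4 h intervals between 2 and 18 h, normalized as percent of control with DMSO at 100% and a positive control at 0%. A significant (2 sigma) signal drop marks a time point as decreased. The authors' rule for a hit is not shown and takes in more than the number of time points.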",
  "data": [
    {"molecular_target": "TEC (UniProt P42680)", "test": "number of time points (of 5) at which kinase-Nluc abundance scored as decreased, DMSO-normalised (count); higher = more persistent destabilization", "details": "K562; 2-18 h", "values": [
      {"smiles": "Cc1ccc(-n2nc(C(C)(C)C)cc2NC(=O)Nc2ccc(OCCN3CCOCC3)cc2)cc1", "note": "(10 µM)", "number of time points": 0},
      {"smiles": "c1ccc(Cn2c(-c3ccc(OC[C@H](C4CCNCC4)n4c(-c5ccccc5)nc5ccccc54)cc3)nc3ccccc32)cc1", "note": "[Deltarasin] (2.5 µM)", "number of time points": 0},
      {"smiles": "C=CC(=O)N1CC[C@@H](Oc2nc(Nc3ccc(N4CCC(N5CCN(C)CC5)CC4)cc3)c(C(N)=O)nc2CC)C1", "note": "[Naquotinib (mesylate)] (2.5 µM)", "number of time points": 0},
      {"smiles": "Cc1cc(O)c2c(c1)C(=O)c1cccc(O)c1C2=O", "note": "[Chrysophanol] (2 µM)", "number of time points": 0},
      {"smiles": "Cc1cc(C(=O)NC(C)(C)C)cc(C#Cc2ccc3c4c(oc3c2)C(C)(C)c2cc(NS(C)(=O)=O)ccc2C4=O)n1", "note": "(10 µM)", "number of time points": 0},
      {"smiles": "Nc1nc(NCCNc2ncc(-n3ccnc3)c(-c3ccc(Cl)cc3Cl)n2)ccc1[N+](=O)[O-]", "note": "(2.5 µM)", "number of time points": 0},
      {"smiles": "Cn1c(CNc2cccc(C(=O)NCc3ccccc3C(F)(F)F)c2)nnc1-c1ccncc1", "note": "(10 µM)", "number of time points": 0}
    ]},
    {"molecular_target": "TYK2 (UniProt P29597)", "test": "number of time points (of 5) at which kinase-Nluc abundance scored as decreased, DMSO-normalised (count); higher = more persistent destabilization", "details": "K562; 2-18 h", "values": [
      {"smiles": "CC(C)n1ncnc1-c1cn2c(n1)-c1ccc(O[C@@H](C)C(N)=O)cc1OCC2", "note": "(10 µM)", "number of time points": 0},
      {"smiles": "O=C(c1cccc(Cl)c1F)N1CCN(Cc2cccc(Nc3nccs3)n2)CC1", "note": "(2.5 µM)", "number of time points": 0},
      {"smiles": "COc1cc(F)ccc1-c1ncnc(Nc2cccc(C[S@](C)(=N)=O)c2)n1", "note": "[Atuveciclib] (2.5 µM)", "number of time points": 3},
      {"smiles": "Cc1cnc(NC(=O)c2cc(Oc3cnc(C(=O)N(C)C)nc3)c3cc(C)oc3c2)cn1", "note": "(10 µM)", "number of time points": 0},
      {"smiles": "CC1=C(C(=O)Nc2cc3cn[nH]c3cc2F)C(c2ccc(C(F)(F)F)cc2)CC(=O)N1", "note": "(stereo not given) (10 µM)", "number of time points": 0},
      {"smiles": "NCC1CCC(CNc2nc(NCc3ccccc3OC(F)(F)F)ncc2[N+](=O)[O-])CC1", "note": "(stereo not given) [PKC-theta inhibitor] (10 µM)", "number of time points": 5},
      {"smiles": "O=C1Nc2ccc(I)cc2/C1=C/c1cc(Br)c(O)c(Br)c1", "note": "(10 µM)", "number of time points": 1},
      {"smiles": "COc1cc(-c2oc3cc(O)cc(O)c3c(=O)c2O)ccc1O", "note": "[Isorhamnetin] (10 µM)", "number of time points": 0},
      {"smiles": "O=C1OC(/C=C/c2ccccc2)=NC/1=C\\c1cccnc1", "note": "(10 µM)", "number of time points": 0},
      {"smiles": "Cn1ncc(NC(=O)c2nc(-c3c(F)cccc3F)sc2N)c1N1CC[C@@H](N)[C@H](F)CC1", "note": "(10 µM)", "number of time points": 0},
      {"smiles": "CNC(=O)CNc1cnc2ccc(-c3ccc(OC)c(OC)c3)cc2n1", "note": "(10 µM)", "number of time points": 0},
      {"smiles": "CO[C@H]1C[C@@H]2CC[C@@H](C)[C@@](O)(O2)C(=O)C(=O)N2CCCC[C@H]2C(=O)O[C@H]([C@H](C)C[C@@H]2CC[C@@H](OCCO)[C@H](OC)C2)CC(=O)[C@H](C)/C=C(\\C)[C@@H](O)[C@@H](OC)C(=O)[C@H](C)C[C@H](C)/C=C/C=C/C=C/1C", "note": "[Everolimus] (10 µM)", "number of time points": 2},
      {"smiles": "O=C(Nc1cccnc1)c1cc(-c2ccnc(F)c2)ccc1OCc1ccccc1", "note": "(10 µM)", "number of time points": 0},
      {"smiles": "COc1c(O)cc2oc(-c3ccc(O)cc3)cc(=O)c2c1O", "note": "[Hispidulin] (10 µM)", "number of time points": 0},
      {"smiles": "O=C1CC[C@H](NC(=O)Cc2ccccc2)C(=O)N1", "note": "[Antineoplaston A10] (10 µM)", "number of time points": 0},
      {"smiles": "CC(C)Oc1ccc(F)c(-c2cnc(N)c(C(=O)Nc3cnccc3N3CCC[C@@H](C(=O)O)C3)n2)c1", "note": "(2 µM)", "number of time points": 2},
      {"smiles": "Nc1nc2c(nc(Br)n2[C@@H]2O[C@@H]3COP(=O)(O)O[C@H]3[C@H]2O)c(=O)[nH]1", "note": "[8-Bromo-cGMP (sodium)] (10 µM)", "number of time points": 0},
      {"smiles": "Cc1cc(-n2c(=O)ccc3c[nH]c4nccc-4c32)ccc1F", "note": "(10 µM)", "number of time points": 0},
      {"smiles": "CO[C@H]1CC[C@H](N2C(=O)CNc3ncc(-c4ccc(C(C)(C)O)nc4)nc32)CC1", "note": "(2.5 µM)", "number of time points": 0},
      {"smiles": "COc1cc2c(cc1OC)/C(=C/c1ccc(O)cc1)C(=O)N2", "note": "(10 µM)", "number of time points": 0},
      {"smiles": "NCCOc1ccc(Cl)cc1C(=O)Nc1ccc([N+](=O)[O-])cc1Cl", "note": "[HJC0152 hydrochloride] (2 µM)", "number of time points": 0},
      {"smiles": "CCN(CC)CCOc1ccc(Nc2nc(-c3ccccc3NC(=O)CCN3CCN(C)CC3)nc3ccccc23)cc1", "note": "(2.5 µM)", "number of time points": 0},
      {"smiles": "C=CC(=O)N1CCN(C(=O)CNc2cc(I)c(Cl)cc2O)CC1", "note": "[K-Ras(G12C) inhibitor 12] (10 µM)", "number of time points": 0},
      {"smiles": "N[C@@H]1CCCN(c2c(/C=C3\\SC(=O)NC3=O)cccc2-c2ccccc2)C1", "note": "(10 µM)", "number of time points": 0},
      {"smiles": "O=C(Nc1cc(Cl)cc2c1[nH]c1cnccc12)c1cccnc1", "note": "(10 µM)", "number of time points": 0},
      {"smiles": "C=C1C(=O)[C@@]23[C@H](O)C[C@@H]4C(C)(C)C(=O)CC[C@@]4(C)[C@@H]2CC[C@@H]1[C@H]3O", "note": "[Glaucocalyxin A] (2.5 µM)", "number of time points": 0},
      {"smiles": "C[C@@H]1O[C@@H](Oc2cc(O)c3c(=O)c(O[C@@H]4O[C@@H](C)[C@H](O)[C@@H](O)[C@H]4O)c(-c4ccc(O)cc4)oc3c2)[C@H](O)[C@H](O)[C@H]1O", "note": "[Kaempferitrin] (10 µM)", "number of time points": 0},
      {"smiles": "Cc1c(C(=O)Nc2ccc(Oc3ccnc4[nH]cc(-c5ccccc5)c34)c(F)c2)c(=O)n(-c2ccc(F)cc2)n1C", "note": "(10 µM)", "number of time points": 1},
      {"smiles": "c1nc2c(NC3CCCCC3)nc(Nc3ccc(N4CCOCC4)cc3)nc2[nH]1", "note": "[Reversine] (10 µM)", "number of time points": 4},
      {"smiles": "CN1CCN(c2ccc(Nc3ncc4cc(C#N)c(=O)n(C5CCCC5)c4n3)cc2)CC1", "note": "(10 µM)", "number of time points": 0},
      {"smiles": "NC[C@@](O)(c1ccc(Cl)cc1)c1ccc(-c2cn[nH]c2)cc1", "note": "(10 µM)", "number of time points": 0},
      {"smiles": "Cc1ccc(-n2nc(C(C)(C)C)cc2NC(=O)Nc2ccc(OCCN3CCOCC3)cc2)cc1", "note": "(10 µM)", "number of time points": 0},
      {"smiles": "c1ccc(Cn2c(-c3ccc(OC[C@H](C4CCNCC4)n4c(-c5ccccc5)nc5ccccc54)cc3)nc3ccccc32)cc1", "note": "[Deltarasin] (2.5 µM)", "number of time points": 0},
      {"smiles": "C=CC(=O)N1CC[C@@H](Oc2nc(Nc3ccc(N4CCC(N5CCN(C)CC5)CC4)cc3)c(C(N)=O)nc2CC)C1", "note": "[Naquotinib (mesylate)] (2.5 µM)", "number of time points": 0},
      {"smiles": "Cc1cc(O)c2c(c1)C(=O)c1cccc(O)c1C2=O", "note": "[Chrysophanol] (2 µM)", "number of time points": 0},
      {"smiles": "Cc1cc(C(=O)NC(C)(C)C)cc(C#Cc2ccc3c4c(oc3c2)C(C)(C)c2cc(NS(C)(=O)=O)ccc2C4=O)n1", "note": "(10 µM)", "number of time points": 0},
      {"smiles": "Nc1nc(NCCNc2ncc(-n3ccnc3)c(-c3ccc(Cl)cc3Cl)n2)ccc1[N+](=O)[O-]", "note": "(2.5 µM)", "number of time points": 0},
      {"smiles": "Cn1c(CNc2cccc(C(=O)NCc3ccccc3C(F)(F)F)c2)nnc1-c1ccncc1", "note": "(10 µM)", "number of time points": 0}
    ]}
  ]
}
